Measured values from patent US20100298285A1, “Biclycloheteroaryl Compounds as P2x7 Modulators and Uses Thereof” (priority 2006, published 2010).
At least one read-out could not be matched to a standard name with certainty.

Test system: IL-1β release, THP-1 cells
Experiment: IL-1β release assay in differentiated THP-1 cells stimulated with BzATP (Example 9)
Assay type: cell-based, human
Conditions: BzATP 250 uM
Method in brief: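 THP-1 cells differentiated 16 h with 100 ng/mL LPS + 100 ng/mL IFN-γ, re-primed 2 h with fresh LPS 100 ng/mL, pretreated 30 min with compound, then stimulated with BzATP 250 uM final for 45 min. Supernatant IL-1β by ELISA; background-adjusted % inhibition, IC50 from four-parameter logistic fit.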

[1] = "+" symbols = inhibition at 0.3 μM, "*" symbols = inhibition at 0.1 μM
[2] = + symbols = 0.3 μM, * symbols = 0.1 μM compound concentration

| SMILES | IL-1β% Inhib. @ 0.3 or 0.1 μM [1] | IL-1β% Inhib. @ 0.3 or 0.1 μM [2] |
| --- | --- | --- |
| O=C(Cc1cccc(C(F)(F)F)c1F)Nc1c(Cl)ccc2c1CCN(S(=O)(=O)c1ccc3ncsc3c1)C2 [Compound 3383] | ++ (compound exhibited 26-50% inhibition at 0.3 μM concentration) | – |
| O=C(Cc1ccc(C(F)(F)F)c(F)c1)Nc1c(Cl)ccc2c1CCN(S(=O)(=O)c1ccc3ncsc3c1)C2 [Compound 3384] | + (compound exhibited 0-25% inhibition at 0.3 μM concentration) | – |
| Cc1nc(C)c(S(=O)(=O)N2CCc3c(ccc(Cl)c3NC(=O)Cc3ccc(C(F)(F)F)c(F)c3)C2)s1 [Compound 3385] | + (compound exhibited 0-25% inhibition at 0.3 μM concentration) | – |
| Cc1cc(C)cc(S(=O)(=O)N2CCc3c(ccc(Cl)c3NC(=O)Cc3ccc(C(F)(F)F)c(F)c3)C2)c1 [Compound 3386] | + (compound exhibited 0-25% inhibition at 0.3 μM concentration) | – |
| Cc1nc(C)c(S(=O)(=O)N2CCc3c(ccc(Cl)c3NC(=O)Cc3cccc(C(F)(F)F)c3F)C2)s1 [Compound 3387] | + (compound exhibited 0-25% inhibition at 0.3 μM concentration) | – |
| Cn1cnc(S(=O)(=O)N2CCc3c(ccc(Cl)c3NC(=O)Cc3ccc(C(F)(F)F)c(F)c3)C2)c1 [Compound 3388] | ++ (compound exhibited 26-50% inhibition at 0.3 μM concentration) | – |
| Cc1nc(S(=O)(=O)N2CCc3c(ccc(Cl)c3NC(=O)Cc3cccc(C(F)(F)F)c3F)C2)cn1C [Compound 3389] | + (compound exhibited 0-25% inhibition at 0.3 μM concentration) | – |
| O=C(Cc1cccc(C(F)(F)F)c1F)Nc1c(Cl)ccc2c1CCN(S(=O)(=O)Cc1cc(Cl)cc(Cl)c1)C2 [Compound 3390] | + (compound exhibited 0-25% inhibition at 0.3 μM concentration) | – |
| Cn1cnc(S(=O)(=O)N2CCc3c(ccc(Cl)c3NC(=O)Cc3cccc(C(F)(F)F)c3F)C2)c1 [Compound 3391] | ++ (compound exhibited 26-50% inhibition at 0.3 μM concentration) | – |
| O=C(Cc1cccc(C(F)(F)F)c1F)Nc1c(Cl)ccc2c1CCN(S(=O)(=O)c1ccc(Oc3cc(Cl)cc(Cl)c3)cc1)C2 [Compound 3392] | + (compound exhibited 0-25% inhibition at 0.3 μM concentration) | – |
| Cc1nc(S(=O)(=O)N2CCc3c(ccc(Cl)c3NC(=O)Cc3ccc(C(F)(F)F)c(F)c3)C2)cn1C [Compound 3393] | + (compound exhibited 0-25% inhibition at 0.3 μM concentration) | – |
| N#Cc1ccc(S(=O)(=O)N2CCc3c(ccc(Cl)c3NC(=O)Cc3ccc(C(F)(F)F)c(F)c3)C2)c(Cl)c1 [Compound 3394] | ++ (compound exhibited 26-50% inhibition at 0.3 μM concentration) | – |
| Cc1ccc2c(c1NC(=O)Cc1ccc(C(F)(F)F)c(F)c1)CCN(S(=O)(=O)c1cn(C)c(C)n1)C2 [Compound 3395] | + (compound exhibited 0-25% inhibition at 0.3 μM concentration) | – |
| Cc1ccc2c(c1NC(=O)Cc1ccc(C(F)(F)F)c(F)c1)CCN(S(=O)(=O)Cc1cc(C(F)(F)F)cc(C(F)(F)F)c1)C2 [Compound 3396] | + (compound exhibited 0-25% inhibition at 0.3 μM concentration) | – |
| Cc1ccc2c(c1NC(=O)Cc1ccc(C(F)(F)F)c(F)c1)CCN(S(=O)(=O)Cc1ccc(Cl)c(Cl)c1)C2 [Compound 3397] | + (compound exhibited 0-25% inhibition at 0.3 μM concentration) | – |
| Cc1ccc2c(c1NC(=O)Cc1ccc(C(F)(F)F)c(F)c1)CCN(S(=O)(=O)c1ccc(Oc3cc(Cl)cc(Cl)c3)cc1)C2 [Compound 3398] | – | + (compound exhibited 0-25% inhibition at 0.3 μM concentration) |
| Cc1ccc2c(c1NC(=O)Cc1ccc(C(F)(F)F)c(F)c1)CCN(S(=O)(=O)Cc1ccc(C(F)(F)F)cc1)C2 [Compound 3399] | – | + (compound exhibited 0-25% inhibition at 0.3 μM concentration) |
| Cc1ccc2c(c1NC(=O)Cc1ccc(C(F)(F)F)c(F)c1)CCN(S(=O)(=O)Cc1cc(Cl)cc(Cl)c1)C2 [Compound 3400] | – | + (compound exhibited 0-25% inhibition at 0.3 μM concentration) |
| Cc1ccc2c(c1NC(=O)Cc1ccc(C(F)(F)F)c(F)c1)CCN(S(=O)(=O)Cc1ccccc1)C2 [Compound 3401] | – | ++ (compound exhibited 26-50% inhibition at 0.3 μM concentration) |
| CC(=O)Nc1ccc(S(=O)(=O)N2CCc3c(ccc(C)c3NC(=O)Cc3ccc(C(F)(F)F)c(F)c3)C2)cc1 [Compound 3402] | – | ++ (compound exhibited 26-50% inhibition at 0.3 μM concentration) |
| Cc1nc(C)c(S(=O)(=O)N2CCc3c(ccc(C)c3NC(=O)Cc3ccc(C(F)(F)F)c(F)c3)C2)s1 [Compound 3403] | – | ++ (compound exhibited 26-50% inhibition at 0.3 μM concentration) |
| Cc1ccc2c(c1NC(=O)Cc1ccc(C(F)(F)F)c(F)c1)CCN(S(=O)(=O)Cc1ccc(F)cc1)C2 [Compound 3404] | – | + (compound exhibited 0-25% inhibition at 0.3 μM concentration) |
| Cc1ccc2c(c1NC(=O)Cc1ccc(C(F)(F)F)c(F)c1)CCN(S(=O)(=O)Cc1cccc(C(F)(F)F)c1)C2 [Compound 3405] | – | + (compound exhibited 0-25% inhibition at 0.3 μM concentration) |

| SMILES | IL-1β% Inhib. @ 0.3 or 0.1 μM [1] | IL-1β% Inhib. @ 0.3 or 0.1 μM [2] |
| --- | --- | --- |
| Cc1ccc2c(c1NC(=O)Cc1ccc(C(F)(F)F)c(F)c1)CCN(S(=O)(=O)CC(F)(F)F)C2 [Compound 3406] | – | ++++ (compound exhibited 76% or greater inhibition at 0.3 μM concentration) |
| Cc1cc(C)cc(S(=O)(=O)N2CCc3c(ccc(C)c3NC(=O)Cc3ccc(C(F)(F)F)c(F)c3)C2)c1 [Compound 3407] | – | + (compound exhibited 0-25% inhibition at 0.3 μM concentration) |
| Cc1ccc2c(c1NC(=O)Cc1ccc(C(F)(F)F)c(F)c1)CCN(S(=O)(=O)c1cccc(Oc3ccc(Cl)c(Cl)c3)c1)C2 [Compound 3408] | – | + (compound exhibited 0-25% inhibition at 0.3 μM concentration) |
| Cc1ccc2c(c1NC(=O)Cc1ccc(C(F)(F)F)c(F)c1)CCN(S(=O)(=O)c1cccc(C(F)(F)F)c1)C2 [Compound 3409] | – | + (compound exhibited 0-25% inhibition at 0.3 μM concentration) |
| Cc1ccc2c(c1NC(=O)Cc1ccc(C(F)(F)F)c(F)c1)CCN(S(=O)(=O)c1ccc(S(C)(=O)=O)cc1)C2 [Compound 3410] | – | ++ (compound exhibited 26-50% inhibition at 0.3 μM concentration) |
| Cc1ccc2c(c1NC(=O)Cc1ccc(C(F)(F)F)c(F)c1)CCN(S(=O)(=O)c1c(C)noc1C)C2 [Compound 3411] | – | + (compound exhibited 0-25% inhibition at 0.3 μM concentration) |
| Cc1ccc2c(c1NC(=O)Cc1ccc(C(F)(F)F)c(F)c1)CCN(S(=O)(=O)c1ccc3c(c1)OCCN3C)C2 [Compound 3412] | – | + (compound exhibited 0-25% inhibition at 0.3 μM concentration) |
| Cc1ccc2c(c1NC(=O)Cc1ccc(C(F)(F)F)c(F)c1)CCN(S(=O)(=O)c1cn(C)cn1)C2 [Compound 3413] | – | + (compound exhibited 0-25% inhibition at 0.3 μM concentration) |
| Cc1ccc2c(c1NC(=O)Cc1ccc(C(F)(F)F)c(F)c1)CCN(S(=O)(=O)C(C)C)C2 [Compound 3414] | – | ++++ (compound exhibited 76% or greater inhibition at 0.3 μM concentration) |
| Cc1ccc2c(c1NC(=O)Cc1ccc(C(F)(F)F)c(F)c1)CCN(S(=O)(=O)c1ccc3c(c1)OCCO3)C2 [Compound 3415] | – | ++++ (compound exhibited 76% or greater inhibition at 0.3 μM concentration) |
| Cc1ccc2c(c1NC(=O)Cc1ccc(C(F)(F)F)c(F)c1)CCN(S(=O)(=O)c1cc(Cl)ccc1Cl)C2 [Compound 3416] | – | + (compound exhibited 0-25% inhibition at 0.3 μM concentration) |
| COc1ccc(Oc2ccc(S(=O)(=O)N3CCc4c(ccc(C)c4NC(=O)Cc4ccc(C(F)(F)F)c(F)c4)C3)cc2)cc1 [Compound 3417] | – | + (compound exhibited 0-25% inhibition at 0.3 μM concentration) |
| Cc1ccc2c(c1NC(=O)Cc1ccc(C(F)(F)F)c(F)c1)CCN(S(=O)(=O)c1csc3ccccc13)C2 [Compound 3418] | – | + (compound exhibited 0-25% inhibition at 0.3 μM concentration) |
| Cc1ccc2c(c1NC(=O)Cc1ccc(C(F)(F)F)c(F)c1)CCN(S(=O)(=O)c1cccc(OC(F)(F)F)c1)C2 [Compound 3419] | – | + (compound exhibited 0-25% inhibition at 0.3 μM concentration) |
| Cc1ccc2c(c1NC(=O)Cc1ccc(C(F)(F)F)c(F)c1)CCN(S(=O)(=O)c1ccc(Cl)cc1F)C2 [Compound 3420] | – | + (compound exhibited 0-25% inhibition at 0.3 μM concentration) |
| CCCS(=O)(=O)N1CCc2c(ccc(C)c2NC(=O)Cc2ccc(C(F)(F)F)c(F)c2)C1 [Compound 3421] | – | +++ (compound exhibited 51-75% inhibition at 0.3 μM concentration) |
| Cc1ccc2c(c1NC(=O)Cc1ccc(C(F)(F)F)c(F)c1)CCN(S(=O)(=O)c1ccc(Cl)c(Cl)c1)C2 [Compound 3422] | – | + (compound exhibited 0-25% inhibition at 0.3 μM concentration) |
| Cc1ccc2c(c1NC(=O)Cc1ccc(C(F)(F)F)c(F)c1)CCN(S(=O)(=O)c1ccc(Cl)cc1)C2 [Compound 3423] | – | + (compound exhibited 0-25% inhibition at 0.3 μM concentration) |
| Cc1ccc2c(c1NC(=O)Cc1ccc(C(F)(F)F)c(F)c1)CCN(S(=O)(=O)c1ccc(F)cc1)C2 [Compound 3424] | – | ++ (compound exhibited 26-50% inhibition at 0.3 μM concentration) |
| Cc1ccc2c(c1NC(=O)Cc1ccc(C(F)(F)F)c(F)c1)CCN(S(=O)(=O)c1c(F)cccc1F)C2 [Compound 3425] | – | ++++ (compound exhibited 76% or greater inhibition at 0.3 μM concentration) |
| Cc1cccc(S(=O)(=O)N2CCc3c(ccc(C)c3NC(=O)Cc3ccc(C(F)(F)F)c(F)c3)C2)c1 [Compound 3426] | – | + (compound exhibited 0-25% inhibition at 0.3 μM concentration) |
| COc1ccc(S(=O)(=O)N2CCc3c(ccc(C)c3NC(=O)Cc3ccc(C(F)(F)F)c(F)c3)C2)cc1OC [Compound 3427] | – | + (compound exhibited 0-25% inhibition at 0.3 μM concentration) |
